Data published in the RNAGym collection of RNA variant scans (doi:10.1126/science.aae0568).
This sample is rich in variants without activity.

B1: tRNA (parent)
chain: GUUCCGUUGGCGUAAUGGUAACGCGUCUCCCUCCUAAGGAGAAGACUGCGGGUUCGAGUCCCGUACGGAACG

Variants of: B1
Assay: yeast fitness relative to wild type (ratio to wild type); higher = fitter; tRNA-Arg(CCU), competitive growth, 37 C, YPD
Outline: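 Amplicons of the tRNA-Arg(CCU) gene were sequenced, 100-nucleotide paired-end, from the start population and from each end population of a pooled yeast competition. The competition, in six parallel replicates, lasted 24 hours in YPD at 37°C. Fitness relative to wild type was calculated from changes in genotype frequencies. Genotypes had to have ≥ 100 starting reads, and estimates < 0.5 were set to 0.5.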

| Variant | yeast fitness |
| --- | --- |
| C4U C24U U47C G56C | ≤ 0.5 |
| C4U C27A U35C A65C A69C | ≤ 0.5 |
| C4U C27G U32C C34U | ≤ 0.5 |
| C4U C27G U53A C66U | ≤ 0.5 |
| C4U C27U G39C U54G C55U | ≤ 0.5 |
| C4U C27U G63U U64G | ≤ 0.5 |
| C4U C30A C66U | 0.82 |
| C4U C30A G50U | 0.715 |
| C4U C30G C46U G52A G67C | ≤ 0.5 |
| C4U C31U C55G U59A | 0.546 |
| C4U C33A A40U G68A | ≤ 0.5 |
| C4U C33U A65C G68A A70U | ≤ 0.5 |
| C4U C33U C55A | ≤ 0.5 |
| C4U C34A A69G | ≤ 0.5 |
| C4U C34G U54G C66U | ≤ 0.5 |
| C4U C46A G52A | ≤ 0.5 |
| C4U G6A C29G G41A C60A | ≤ 0.5 |
| C4U G6A U8G C31U U64C | ≤ 0.5 |
| C4U G6C U16C G67A | ≤ 0.5 |
| C4U G9C A20U A57G C61U A69U | ≤ 0.5 |
| C4U G9C C11G A14C U28A G63C | ≤ 0.5 |
| C4U G9C G25C C31U A70G | ≤ 0.5 |
| C4U G10A G25A U35G | ≤ 0.5 |
| C4U G10C G23A U26C U32C A43G U53A | ≤ 0.5 |

| Variant | yeast fitness |
| --- | --- |
| C4U G12A A42U G68A | ≤ 0.5 |
| C4U G12A C27G C34A C49A G68U | ≤ 0.5 |
| C4U G12A C33U A65U | ≤ 0.5 |
| C4U G12C A37U C49G | ≤ 0.5 |
| C4U G17A U19G A21G A43G | 0.554 |
| C4U G17C G18C C22A C60A C66U | ≤ 0.5 |
| C4U G23A G56C | ≤ 0.5 |
| C4U G23C | 0.716 |
| C4U G23C A36C C55G A57U G67A | ≤ 0.5 |
| C4U G23C A42U | ≤ 0.5 |
| C4U G25A G51C | ≤ 0.5 |
| C4U G39C C60G | ≤ 0.5 |
| C4U G39C U59G C62A | ≤ 0.5 |
| C4U G44C G67A | 0.768 |
| C4U G56A A70C | 0.754 |
| C4U G68A | 0.856 |
| C4U U8A C11U C22U A57U | ≤ 0.5 |
| C4U U8C | 0.942 |
| C4U U8C A36G A40C G44C | ≤ 0.5 |
| C4U U13A A14U C29U A37G G51C | ≤ 0.5 |
| C4U U13A G68C | ≤ 0.5 |
| C4U U13C C29G C34A | ≤ 0.5 |
| C4U U16A A20C U54A | ≤ 0.5 |
| C4U U16C U32A G58A C60U | ≤ 0.5 |

| Variant | yeast fitness |
| --- | --- |
| C4U U19C C34A G50C G56A | ≤ 0.5 |
| C4U U19G G50A G51C C55G C61U | ≤ 0.5 |
| C4U U26C U35G A43C U47C C55U A69C | ≤ 0.5 |
| C4U U32C A36G G44C | ≤ 0.5 |
| C4U U32G U53A G68A | ≤ 0.5 |
| C4U U35C | 0.715 |
| C4U U35G A65U | ≤ 0.5 |
| C4U U47A G51C A70U | ≤ 0.5 |
| C5A A14C A15G A20G C49A | ≤ 0.5 |
| C5A A14G | 0.912 |
| C5A A14G C24A A69U | ≤ 0.5 |
| C5A A14U A21C C61U | ≤ 0.5 |
| C5A A14U C27U C49G U54C | ≤ 0.5 |
| C5A A14U C31G G63A | ≤ 0.5 |
| C5A A15C C27U C30U U32G U35A A37C A57U | ≤ 0.5 |
| C5A A15C C27U C30U U32G U35A A37C G50U A57U | ≤ 0.5 |
| C5A A15G C29U C34U A40C G56A | ≤ 0.5 |
| C5A A15G C34U A40C G56A | ≤ 0.5 |
| C5A A15U G41C | ≤ 0.5 |
| C5A A20C A57U C60A G68C | ≤ 0.5 |
| C5A A21U C55A | 0.572 |
| C5A A37G A40U | ≤ 0.5 |
| C5A A69U A70C | 0.768 |
| C5A C11A | 0.592 |

| Variant | yeast fitness |
| --- | --- |
| C5A C11G G23C C29U G56C C61A | ≤ 0.5 |
| C5A C11G G38A G50C | ≤ 0.5 |
| C5A C11G G41C C62G | ≤ 0.5 |
| C5A C11G G41C G48C | ≤ 0.5 |
| C5A C22G A37C A40C A69C | ≤ 0.5 |
| C5A C22G U59G | ≤ 0.5 |
| C5A C22U A45G C49A A69C | ≤ 0.5 |
| C5A C22U C34G A36U G56C | ≤ 0.5 |
| C5A C22U C49U G50C A65C | ≤ 0.5 |
| C5A C24G C31G C33A G58C C60A A70C | ≤ 0.5 |
| C5A C24G C31G U47A | ≤ 0.5 |
| C5A C24G G25A G48A | ≤ 0.5 |
| C5A C24G U26A C29G U32A U54C | ≤ 0.5 |
| C5A C24U G58C A69U | ≤ 0.5 |
| C5A C24U U35C C66U | 0.549 |
| C5A C24U U64C | 0.639 |
| C5A C29G A43G | ≤ 0.5 |
| C5A C29U A69U | 0.632 |
| C5A C30U C60U | ≤ 0.5 |
| C5A C30U U35A A42G | ≤ 0.5 |
| C5A C31A A37C C46U | ≤ 0.5 |
| C5A C31G A42C G56A C61G | ≤ 0.5 |
| C5A C33G C61G A69C | ≤ 0.5 |
| C5A C34A C46U A57G | ≤ 0.5 |

| Variant | yeast fitness |
| --- | --- |
| C5A C34U C55A | ≤ 0.5 |
| C5A C46U | 0.997 |
| C5A C55A A69C A70U | ≤ 0.5 |
| C5A C60A | 0.651 |
| C5A C62G C66A | ≤ 0.5 |
| C5A G9C C46U C61G C66U A69U | ≤ 0.5 |
| C5A G9C G38C G63C C66U | ≤ 0.5 |
| C5A G10C G56C | ≤ 0.5 |
| C5A G12A A57C C66U | ≤ 0.5 |
| C5A G12A C22G C27G A36U A40C C66U | ≤ 0.5 |
| C5A G17C A43U | 0.543 |
| C5A G17C A57G | ≤ 0.5 |
| C5A G17C G18C C30G U59G C66A | ≤ 0.5 |
| C5A G17C G50C C60U C62A | ≤ 0.5 |
| C5A G23A C24U U53A G67U G68A | ≤ 0.5 |
| C5A G23A G58A | ≤ 0.5 |
| C5A G41A C55A | ≤ 0.5 |
| C5A G41C G68A | ≤ 0.5 |
| C5A G51C G63C A65C | ≤ 0.5 |
| C5A G52A G58C | ≤ 0.5 |
| C5A G52C C66U | ≤ 0.5 |
| C5A G63U | 0.722 |
| C5A U7G C29G C33U G44C A69C | ≤ 0.5 |
| C5A U8C | 0.929 |

| Variant | yeast fitness |
| --- | --- |
| C5A U8C A20G G38A A43C G52A A69C | ≤ 0.5 |
| C5A U13A G39C U47C C60A C61G A69U | ≤ 0.5 |
| C5A U13A U35A U59C | 0.661 |
| C5A U16C C22U A57U | ≤ 0.5 |
| C5A U16C C29U A37C G56C | ≤ 0.5 |
| C5A U16C G51A | ≤ 0.5 |
| C5A U16G U54A | ≤ 0.5 |
| C5A U19A G38C | ≤ 0.5 |
| C5A U19C C29G C31U G58C | ≤ 0.5 |
| C5A U19C C30G G41A A45U C61G | ≤ 0.5 |
| C5A U19G C29A G52A | ≤ 0.5 |
| C5A U19G C31G U53A | 0.775 |
| C5A U35C A36U | 0.57 |
| C5A U35C G44A G48C C55G A65G C66U | ≤ 0.5 |
| C5A U47C A70G | 0.705 |
| C5A U47C C61G | ≤ 0.5 |
| C5G A14C A36U A45U C49U U64A A70U | ≤ 0.5 |
| C5G A14C A37G C62G A69U | ≤ 0.5 |
| C5G A14C G50A C55G C62A | ≤ 0.5 |
| C5G A14U A20C A65U | ≤ 0.5 |
| C5G A14U A20U G41A A57G | ≤ 0.5 |
| C5G A14U G25A G56A G67A | ≤ 0.5 |
| C5G A15C A42C G51C | ≤ 0.5 |
| C5G A15C C46A | ≤ 0.5 |

| Variant | yeast fitness |
| --- | --- |
| C5G A15G A40C C46A | ≤ 0.5 |
| C5G A15G C24G U32A C34G G68A A69U A70U | 0.516 |
| C5G A15U C30A C31A | ≤ 0.5 |
| C5G A20C A40U A45G C46U | ≤ 0.5 |
| C5G A20C C29G G44C | ≤ 0.5 |
| C5G A20G A37G C46G A57C | ≤ 0.5 |
| C5G A20G C34A A40G G44A C46G | ≤ 0.5 |
| C5G A20G C60A A70C | ≤ 0.5 |
| C5G A21C A43U | ≤ 0.5 |
| C5G A21C C33G C55A | ≤ 0.5 |
| C5G A21C C60G C62A A65G | ≤ 0.5 |
| C5G A21U | 0.731 |
| C5G A21U C60A | ≤ 0.5 |
| C5G A36U C46G C62A A69C | ≤ 0.5 |
| C5G A36U C60G G63C | ≤ 0.5 |
| C5G A45C A57U | ≤ 0.5 |
| C5G A45G C46A U64G C66U | ≤ 0.5 |
| C5G C11A A20G U28C C33U | ≤ 0.5 |
| C5G C11G A14C U35G A45C A57C C62G | ≤ 0.5 |
| C5G C11G A14U A15U C24A C33G C49G A65G | ≤ 0.5 |
| C5G C11G A15C A45U C49U C61G A70C | ≤ 0.5 |
| C5G C11G C27G G67U | ≤ 0.5 |
| C5G C11U C31G C62A | ≤ 0.5 |
